Results on 2 molecules are retold here after US20250281465A1, “MOLECULES THAT ENHANCE EXTRACELLULAR VESICLE RELEASE” (priority 2022, published 2025).

Each structure is given as a SMILES string.

This series has as its system mBMDCs. In words: EV release from mBMDCs (differential ultracentrifugation, MRPS). To be noted: vs EVveh.

Take `C[C@H](CCC(=O)O)C[C@H](C)C[C@H](C)C(=O)/C=C(\O)[C@H](C)C[C@H](C)C/C=C/[C@@H](C)[C@@H](O)[C@@H](C)[C@@H](O)C[C@@H]1CC[C@@](C)([C@H]2CC[C@@](C)([C@@H](C)O)O2)O1` [ION, ionomycin, reference compound]: the “size distribution of EVs” value is recorded as “similar”. The entry for `CCOC(=O)c1c(NS(=O)(=O)c2cccc3nsnc23)sc(C)c1C` [compound 634, Ethyl 2-(benzo[c][1,2,5]thiadiazole-4-sulfonamido)-4,5-dimethylthiophene-3-carboxylate] is “similar”.
